Experimental data from paper PMC5048167.
Results are given in words; binding and its absence hold for the method and conditions named. Binding seen in cells or lysates may run through a third protein. Some results given as binding are weak or reduced against the parent protein; the word gives no strength. Tags and fused reporters may be left off the sequences shown.

Amino acid sequences for entries named in this document (tags omitted).
UniProt P9WIA1: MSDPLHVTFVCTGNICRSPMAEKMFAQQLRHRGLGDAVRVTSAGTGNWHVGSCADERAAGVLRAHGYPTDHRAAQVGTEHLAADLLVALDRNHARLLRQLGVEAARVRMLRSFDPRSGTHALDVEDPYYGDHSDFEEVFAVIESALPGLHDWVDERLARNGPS

Biological target: T1, Myc-tagged full-length (FL) TRIM27 (UniProt P14373)
T1 sequence: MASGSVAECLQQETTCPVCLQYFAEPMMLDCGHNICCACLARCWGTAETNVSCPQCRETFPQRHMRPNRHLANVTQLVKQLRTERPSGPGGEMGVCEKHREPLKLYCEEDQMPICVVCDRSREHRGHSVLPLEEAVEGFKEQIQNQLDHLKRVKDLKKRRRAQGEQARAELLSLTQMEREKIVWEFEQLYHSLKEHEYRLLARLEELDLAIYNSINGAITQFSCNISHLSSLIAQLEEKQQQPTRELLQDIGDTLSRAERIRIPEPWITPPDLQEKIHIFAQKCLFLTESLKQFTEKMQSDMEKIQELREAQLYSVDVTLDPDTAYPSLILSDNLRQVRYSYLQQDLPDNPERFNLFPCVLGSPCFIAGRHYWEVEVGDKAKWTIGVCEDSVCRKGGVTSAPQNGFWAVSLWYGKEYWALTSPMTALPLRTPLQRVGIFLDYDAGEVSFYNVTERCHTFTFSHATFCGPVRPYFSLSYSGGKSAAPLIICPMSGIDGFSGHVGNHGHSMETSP
Experiment: co-IP

## Flag-tagged Mtb PtpA (from UniProt P9WIA1 1-163) (enzyme)
  binding: binds
